Experimental data taken from PubChem BioAssay AID2685 (National Center for Advancing Translational Sciences (NCATS), 2010).
The other results are listed elsewhere or left out. Further columns of the screen follow, without active or inactive calls. Most of these compounds were active or inconclusive in the main read-out, so they are no random draw. Potencies come from curve fits of mixed quality, noted in brackets.

Assay: qHTS Assay for Lipid Storage Modulators in Drosophila S3 Cells;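 as to cell number change: cells counted by Cell Tracker Red CMTPX staining in the red channel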
Settings: BODIPY lipid droplet fluorescence, 18-24 h; for cell number change: measured here: cell count max response, cells fed with added oleic acid
In short: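 Drosophila S3 cells loaded with oleic acid (400 uM, as added) and compounds at several concentrations; lipid droplets imaged by 488-nm laser-scanning cytometry, 500–530 nm intensity and object ratio to cell channel. Percent activity normalized to 20 uM Triacsin C.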

[1] = measured here: cell number channel AC50, cells fed with added oleic acid
[2] = measured here: lipid fluorescence (Fed channel) AC50, cells fed with added oleic acid

| SMILES | cell number change | AC50 [1] | AC50 [2] |
| --- | --- | --- | --- |
| Cc1nc2ccccc2n1CC(=O)NC1CCCCCC1 | -39.2% | 14.6 µM [falling, single point] | 16.4 µM [falling, partial curve] |
| O=C(NCC(c1cccs1)N1CCOCC1)c1cc(Cl)ccc1[N+](=O)[O-] (stereo not given) | -19% |  | 6.51 µM [falling, single point] |
| O=C(CNC(=O)/C(=C\c1ccccc1)NC(=O)c1ccc(Br)cc1)OCc1ccccc1 | 26.8% |  | 6.51 µM [rising, single point] |
| CC(NCc1ccc(OCc2ccc(Cl)cc2)cc1)C(O)c1ccccc1 (stereo not given) | -28.4% |  |  |
| O=C(Nc1ccc(OC(F)F)c(Cl)c1)c1cccc(OC(F)F)c1 | -7.34% |  | 6.51 µM [rising, single point] |
| Cc1nc2ncnn2c(Nc2ccc3c(c2)OCO3)c1Cc1ccccc1 | -7.66% |  |  |
| CC(Oc1cccc(F)c1)c1ccnc2nc(/N=C/N(C)C)nn12 (stereo not given) | -36.3% | 0.058 µM [falling, full curve, poor fit] | 0.92 µM [falling, partial curve] |
| CCOc1ccc(CNc2ccc3c(c2)ncn3C)cc1 | -16.9% |  |  |
| CC1CCN(C(=O)c2[nH]cnc2C(=O)Nc2nccs2)CC1 | -28.6% | 0.461 µM [falling, full curve, poor fit] | 0.731 µM [falling, full curve, poor fit] |
| N#Cc1ccsc1NC(=O)CN1CCN(S(=O)(=O)c2ccc3ccccc3c2)CC1 |  | 4.11 µM [rising, single point] |  |
| CCOc1cc(/C=N/NC(=O)CN(CCc2ccccc2)S(=O)(=O)c2ccc(NC(C)=O)cc2)ccc1O | -1.13% |  |  |
| COc1ccc(-c2oc3ncnc(NCCCN(C)C)c3c2-c2ccc(OC)cc2)cc1 | -38.3% | 29.1 µM [falling, single point] | 32.6 µM [falling, single point] |
| O=C(c1ccco1)N1CCN(C(=O)c2cc3sccc3n2Cc2ccccc2)CC1 | -1.12% |  |  |
| CCN1C(=O)c2cccc3c(NC(=O)c4cccc(N5C(=O)CCC5=O)c4)ccc1c23 | -77.3% | 29.1 µM [falling, single point] |  |
| COCCN(CC(=O)NC1CCCCC1)C(=O)CSc1nc2ccccc2o1 | 141% | 29.1 µM [rising, single point] |  |
| CCc1cccc(CC)c1-n1c(SCC(=O)N2CCc3ccccc3C2)nnc1-c1cccnc1 |  |  | 18.4 µM [falling, partial curve] |
| COc1ccc([N+](=O)[O-])cc1NC(=O)c1cn(-c2ccc(C)c(C)c2)c(=O)c2ccccc12 | 1.96% |  |  |
| CC1CCCCN1CC(=O)Nc1ccc2c(c1)OC(F)(F)O2 (stereo not given) | -5.74% | 0.58 µM [falling, single point] |  |
| Cc1ccc(N=C2NC(=O)C(CC(=O)NCc3ccccc3)S2)cc1C (stereo not given) |  |  | 6.51 µM [rising, single point] |
| CCOC(=O)CSc1nc(N)c(C#N)c(-c2ccc(OCC)cc2)c1C#N | 5.44% |  |  |

2 successive records from above, for reference:

| SMILES | cell number change | AC50 [1] | AC50 [2] |
| --- | --- | --- | --- |
| COc1ccc([N+](=O)[O-])cc1NC(=O)c1cn(-c2ccc(C)c(C)c2)c(=O)c2ccccc12 | 1.96% |  |  |
| CC1CCCCN1CC(=O)Nc1ccc2c(c1)OC(F)(F)O2 (stereo not given) | -5.74% | 0.58 µM [falling, single point] |  |

Going on with the list.

| SMILES | cell number change | AC50 [1] | AC50 [2] |
| --- | --- | --- | --- |
| CN(Cc1ccc(Cl)c(Cl)c1)C(=O)c1ccccc1SCC(=O)N1CCCC1 | -50% | 29.1 µM [falling, single point] | 0.411 µM [falling, single point] |
| CCCNC(=O)C(Cc1ccc(I)cc1)NC(=O)C1CC1 (stereo not given) | -19.4% | 1.16 µM [rising, single point] |  |
| CCCC(=O)Nc1nnc(-c2ccc(Cl)s2)o1 | -14.7% |  | 0.00517 µM [rising, full curve, poor fit] |
| O=C(NCCCN1CCOCC1)c1cccc(S(=O)(=O)NCc2ccccc2)c1 |  | 0.146 µM [rising, full curve] |  |
| COC(/C=C/Nc1ccc(Br)cc1)=C(C#N)C#N | -12.4% | 0.731 µM [falling, partial curve] | 0.116 µM [falling, full curve, poor fit] |
| CNC(=S)NCCC(c1ccccc1)c1ccccc1 | -83.3% | 29.1 µM [falling, single point] |  |
| CCC(CC)c1nnc(NC(=O)c2ccc([N+](=O)[O-])cc2)s1 | -33.3% | 5.8 µM [falling, full curve] | 1.64 µM [falling, full curve] |
| Cc1cc(NC(=O)COC(=O)C2CC(=O)N(c3ccc(Br)cc3)C2)no1 (stereo not given) | 0.427% |  | 5.17 µM [falling, partial curve, poor fit] |
| O=C(O)CC(c1cccc2ccccc12)N1Cc2ccccc2C1=O (stereo not given) | -9.04% |  | 6.51 µM [falling, single point] |
| CCOC(=O)CSc1ncc(OC)c(Sc2ccc(OC)cc2)n1 | 20.2% |  | 29.1 µM [rising, single point] |
| CC1=Nc2ccc3ccccc3c2C1(C)C |  | 0.103 µM [rising, full curve, poor fit] |  |
| CCN(CC)CCNC(=O)c1ccc(NC(=O)Nc2cccc3ccccc23)cc1 | 5.88% | 0.146 µM [rising, full curve, poor fit] | 29.1 µM [rising, partial curve] |
| CCN(CC)c1ccc(NS(=O)(=O)c2ccc(-c3ccc(=O)[nH]n3)o2)c(C)c1 | -10% |  | 29.1 µM [falling, single point] |
| O=C(O)C1CCN(C(=O)c2ccccc2Cl)CC1 |  |  | 8.2 µM [falling, single point] |
| COc1ccccc1N1CCN(C(c2ccc(N(C)C)cc2)c2nnnn2CCc2ccccc2)CC1 (stereo not given) | -28.1% |  | 25.9 µM [falling, partial curve, poor fit] |
| COC(C[C@H]1O[C@@H]1[C@@H](O)[C@H](C)OCc1ccccc1)OC |  |  | 6.51 µM [rising, partial curve] |
| CCn1c(CC(=O)Nc2ccc(C)cc2)n[nH]c1=S | -6.4% |  |  |
| Cc1ccc(C)c(S(=O)(=O)C(C#N)c2nc3ccccc3nc2N2CCCC2)c1 (stereo not given) | -8.56% |  |  |
| O=[N+]([O-])c1ccc(Cl)c(S(=O)(=O)N2CCCCCC2)c1 | -22.1% |  | 0.58 µM [falling, partial curve, poor fit] |
